Data from paper PMC5487423.
Where a chain is given by its changes, count along the chain named. Results are given in words; binding and its absence hold for the method and conditions named. Some results given as binding are weak or reduced against the parent protein; the word gives no strength. For part of these data: Sequences can lack the tags named with a protein.

The chains behind the UniProt entries cited, without tags or fusion partners. Residues count along the entry.
UniProt P10147, residues 24-92: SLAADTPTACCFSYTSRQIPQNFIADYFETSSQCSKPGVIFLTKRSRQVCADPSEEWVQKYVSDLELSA
UniProt Q92583, residues 24-94: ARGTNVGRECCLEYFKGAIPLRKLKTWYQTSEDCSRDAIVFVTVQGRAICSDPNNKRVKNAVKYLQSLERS
UniProt Q99731, residues 22-98: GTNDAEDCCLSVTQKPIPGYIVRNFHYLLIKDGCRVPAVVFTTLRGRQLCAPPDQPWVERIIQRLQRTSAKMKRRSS
UniProt P13501, residues 24-91: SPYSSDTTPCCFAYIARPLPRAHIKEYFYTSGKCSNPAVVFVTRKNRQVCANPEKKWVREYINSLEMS
UniProt P80075, residues 24-99: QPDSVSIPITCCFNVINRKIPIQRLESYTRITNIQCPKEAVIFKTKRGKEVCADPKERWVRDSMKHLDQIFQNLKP
UniProt P51671, residues 24-97: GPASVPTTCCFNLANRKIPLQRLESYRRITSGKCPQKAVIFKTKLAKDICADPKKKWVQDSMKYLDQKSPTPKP
UniProt P13236, residues 24-92: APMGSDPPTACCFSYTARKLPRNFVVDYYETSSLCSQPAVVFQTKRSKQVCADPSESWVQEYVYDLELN
UniProt P13500, residues 24-99: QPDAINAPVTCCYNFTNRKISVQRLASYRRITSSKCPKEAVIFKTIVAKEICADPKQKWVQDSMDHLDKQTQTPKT

What was measured:
[1] = biological target: T1, P467_RHIPU, yeast surface display, C-terminal SAG1 fusion (Rhipicephalus pulchellus) (UniProt L7M8Z8); experiment: flow cytometry on cells; yeast (EBY100) displaying one evasin fusion after galactose induction, labelled in PBS with biotinylated chemokine (Almac) and streptavidin-Alexa647, 30 minutes on ice; compared with yeast bearing the empty surface display vector; only the binder purified
T1 sequence: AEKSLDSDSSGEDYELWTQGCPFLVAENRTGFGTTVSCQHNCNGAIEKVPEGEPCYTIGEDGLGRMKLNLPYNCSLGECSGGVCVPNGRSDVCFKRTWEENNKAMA

[2] = biological target: T2, P467_RHIPU, yeast surface display, N-terminal AGA2 fusion (Rhipicephalus pulchellus) (UniProt L7M8Z8); experiment: as above
T2 sequence: T1 sequence

[3] = biological target: T3, P974_AMBCA, yeast surface display library clones (Amblyomma cajennense); experiment: flow cytometry on cells; yeast surface display library (mini-library of 24, maxi-library of 352 putative evasins; N-terminal AGA2, C-terminal SAG1 or AGA2) labelled with one biotinylated human CC chemokine and streptavidin-AF647, two rounds of FACS with a gate set by omitting the chemokine; clones sequenced, re-transformed and retested by FACS; only the binder purified
T3 sequence: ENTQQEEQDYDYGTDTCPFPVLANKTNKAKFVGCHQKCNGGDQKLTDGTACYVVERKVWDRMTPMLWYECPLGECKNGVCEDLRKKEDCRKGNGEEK

[4] = biological target: T4, P546_AMBCA, yeast surface display library clones (Amblyomma cajennense); experiment: as above
T4 sequence: T3 sequence with Q8E, E69S, D88E

[5] = biological target: T5, P1182_AMBMA, yeast surface display library clones (Amblyomma maculatum) (UniProt G3MJ83); experiment: as above
T5 sequence: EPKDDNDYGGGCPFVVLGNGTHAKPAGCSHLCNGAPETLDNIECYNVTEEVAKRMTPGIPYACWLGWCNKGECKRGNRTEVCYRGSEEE

[6] = biological target: T6, P467_RHIPU, yeast surface display library clones (Rhipicephalus pulchellus) (UniProt L7M8Z8); experiment: as above
T6 sequence: T1 sequence

[7] = biological target: T7, P1180_AMBTR, yeast surface display library clones (Amblyomma triste); experiment: as above
T7 sequence: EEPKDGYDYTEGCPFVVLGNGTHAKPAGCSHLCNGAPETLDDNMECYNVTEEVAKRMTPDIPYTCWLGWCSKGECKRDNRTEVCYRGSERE

[8] = biological target: T8, P991_AMBCA, yeast surface display library clones (Amblyomma cajennense); experiment: as above
T8 sequence: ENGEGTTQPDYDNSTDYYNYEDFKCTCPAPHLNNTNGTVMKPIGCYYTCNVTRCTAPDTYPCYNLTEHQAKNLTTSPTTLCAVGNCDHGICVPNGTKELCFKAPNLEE

[9] = biological target: T9, P985_AMBPA, yeast surface display library clones (Amblyomma parvum); experiment: as above
T9 sequence: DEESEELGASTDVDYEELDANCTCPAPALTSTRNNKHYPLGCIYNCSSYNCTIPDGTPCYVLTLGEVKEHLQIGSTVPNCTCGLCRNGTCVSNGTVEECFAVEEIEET

[10] = biological target: T10, P1183_AMBTR, yeast surface display library clones (Amblyomma triste); experiment: as above
T10 sequence: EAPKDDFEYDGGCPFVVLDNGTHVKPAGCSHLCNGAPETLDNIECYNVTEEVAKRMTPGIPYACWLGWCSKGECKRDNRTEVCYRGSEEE

Measured: binding

biotinylated CCL3 (from UniProt P10147 24-92) (ligand)
not listed: [8] | [9] | [10]
binds: all other assays above

biotinylated CCL17 (from UniProt Q92583 24-94) (ligand)
binds: [3] | [8]

biotinylated CCL19 (from UniProt Q99731 22-98) (ligand)
binds: [8]

biotinylated CCL5 (from UniProt P13501 24-91) (ligand)
binds: [1] | [2] | [9] | [6] | [8]

biotinylated CCL8 (from UniProt P80075 24-99) (ligand)
binds: [1] | [2] | [3] | [5] | [7] | [8]

biotinylated CCL11 (from UniProt P51671 24-97) (ligand)
binds: [1]

biotinylated CCL4 (from UniProt P13236 24-92) (ligand)
binds: [3] | [5] | [7] | [8]

biotinylated CCL2 (from UniProt P13500 24-99) (ligand)
not listed: [3] | [4] | [9]
binds: all other assays above
